Test results reported in patent US20240139226A1, “A COMPOSITION FOR PROMOTING GLP-1 SECRETION” (priority 2021, published 2024).
Where “and” joins values, the source holds several entries; their conditions need not be identical. Identical values can stand only once. The name of at least one read-out is uncertain.

System: NCI-H716 cells
Experiment: GLP-1 secretion-promoting effect using NCI-H716 cells (GLP-1 in supernatant by ELISA)
Assay type: cell-based, Human
Settings: Control = 100, N=3
Experimental: GLP-1 secretion-promoting effect was evaluated by the following experiment using NCI-H716 cells (Human intestinal tract-derived cell line; purchased from ATCC).
NCI-H716 cells were cultured at 37° C. with 5% CO2 using RPMI1640 (supplemented with 10% Fetal Bovine Serum, manufactured by Sigma) as a cell culture medium for passage. After culturing, cells were suspended in DMEM medium (supplemented with 10% Fetal Bovine Serum; containing 4.5 mg/mL of glucose; manufactured by Shimadzu Diagnostics Corporation, Tokyo, Japan) and added to a Matrigel (120 μL/well; manufactured by Corning Incorporated, NY, USA)-coated 48-well plate at a cell density of 1.2×10^5 cells/well. After incubation for 2 days, the cells were washed twice with 20 mM HEPES-containing HBSS (Hank's Balanced Salt Solution) buffer. After removal of the washing buffer, 20 mM HEPES-HBSS (supplemented with 0.01% BSA) containing the above-described test samples was added and the cells were incubated for 2 hours. […] The amount of GLP-1 in the medium was measured by ELISA method using GLP-1 Active Form Assay Kit (manufactured by Immuno-Biological Laboratories Co, Ltd., Gunma, Japan). […] The LDH activity in the cell culture supernatant of the positive control was set as 100% and the ratio to the positive control (LDH activity in the cell culture supernatant of sample/LDH activity in the positive control) was calculated as the cytotoxicity rate. […]
The amount of GLP-1 secretion was determined as a relative value to the average value of the GLP-1 secretion amount obtained for a control (cells cultured with 20 mM HEPES-HBSS without a test sample instead of 20 mM HEPES-HBSS containing a test sample; shown as “No Addition” in Table 1). […]
Synergistic Effect: Theoretical Value<(is less than) Measured Value • Theoretical Value=([…])×100+(B/D−1)×100 • Measured Value=(C/D-1)×100
The theoretical value and the measure value were compared based on the above formula. When the measured value was higher than the theoretical value, it was judged that there was a synergistic effect, which was indicated as “O” in the table. […]

## Cc1ccc(C(C)C)c(O)c1 [Thymol, thymol]
Table 2, Experiment 2, test sample alone at 0.25 mM
  GLP-1 secretion amount, Independent Use (relative value to Control): 82 and 85 and 119

## C=C(C)[C@@H]1CCC2=CC(=O)C[C@@H](C)[C@]2(C)C1 [Nootkatone, nootkatone]
Table 4, Experiment 4, test sample alone at 0.25 mM, listed as NK
  GLP-1 secretion amount, Independent Use (relative value to Control): 481

## CC1O[C@@H](OC2[C@H](Oc3cc(O)c4c(c3)OC(c3ccc(O)cc3)CC4=O)OC(CO)[C@@H](O)[C@H]2O[C@H]2OC(CO)[C@@H](O)[C@@H](O)C2O)C(O)[C@@H](O)[C@H]1O (stereo partly drawn) [mGN, 3″-α-monoglucosyl naringin]
Table 5, Experiment 5, test sample alone at 25 mM
  GLP-1 secretion amount, Independent Use (relative value to Control): 586 and 457
